Results are given in words; binding and its absence hold for the method and conditions named. Binding seen in cells or lysates may run through a third protein. A yes stands for co-enrichment or nearness to the bait. Other partners may have been found.
Target: Flag-Snail (stably expressed in HEK-293T cells) (UniProt O95863)
Assay: affinity purification with mass spectrometry; HEK-293T cells stably expressing Flag-Snail; lysate on anti-Flag M2 affinity gel, washed with BC500 (500 mM KCl), eluted with 3xFlag peptide; SDS-PAGE, bands excised and identified by mass spectrometry

Sequences of proteins named here, by UniProt entry; tags and fusion partners are left off.
UniProt O95863: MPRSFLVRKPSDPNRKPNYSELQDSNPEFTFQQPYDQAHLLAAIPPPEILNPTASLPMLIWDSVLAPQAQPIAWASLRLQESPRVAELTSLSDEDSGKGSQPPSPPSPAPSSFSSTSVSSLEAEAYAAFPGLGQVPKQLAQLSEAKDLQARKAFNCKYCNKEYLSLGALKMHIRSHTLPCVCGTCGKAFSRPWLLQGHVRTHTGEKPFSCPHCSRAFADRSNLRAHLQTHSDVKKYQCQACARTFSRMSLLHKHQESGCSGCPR
UniProt Q8WXI9: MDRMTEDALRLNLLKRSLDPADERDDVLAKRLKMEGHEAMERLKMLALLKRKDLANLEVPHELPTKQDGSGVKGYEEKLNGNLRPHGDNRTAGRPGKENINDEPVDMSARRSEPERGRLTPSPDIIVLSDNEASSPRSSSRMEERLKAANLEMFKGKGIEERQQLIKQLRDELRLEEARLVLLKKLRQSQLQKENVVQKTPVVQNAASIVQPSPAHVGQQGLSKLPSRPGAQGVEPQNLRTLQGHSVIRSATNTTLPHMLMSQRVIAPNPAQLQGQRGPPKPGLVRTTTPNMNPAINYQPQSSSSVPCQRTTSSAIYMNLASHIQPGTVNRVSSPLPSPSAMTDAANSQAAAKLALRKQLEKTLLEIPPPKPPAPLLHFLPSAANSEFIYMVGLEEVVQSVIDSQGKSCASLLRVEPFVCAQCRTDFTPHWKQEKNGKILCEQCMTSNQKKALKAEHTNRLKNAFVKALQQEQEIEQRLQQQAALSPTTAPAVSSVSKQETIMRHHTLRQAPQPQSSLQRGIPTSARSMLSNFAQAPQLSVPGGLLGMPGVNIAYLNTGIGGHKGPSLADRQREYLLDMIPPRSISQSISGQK

**Q.** For “p66β (endogenous, HEK-293T cells) (from UniProt Q8WXI9 1-593)”, which binding is on record?
**A.** The binding was “binds”.

Source: article PMC10307831, “GATA zinc finger protein p66β promotes breast cancer cell migration by acting as a co-activator of Snail”
